PubChem BioAssay AID1224830, NIAID, 2016
This is an unselected part of about 18,000 reagents. Of all reagents, about 2,900 (16%) are marked active. 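Calls are made per well; low scores hint the gene aids the LPS response, high scores that it dampens it.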 Repeated entries: four replicate wells of each siRNA pool.

Screen: 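Genes whose knock-down alters the TNF-alpha reporter response to LPS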 (primary screen)
Cells: human THP-1 monocytic leukaemia cells, TNF dual-luciferase reporter clone, PMA-differentiated to macrophage-like cells
Reagents: siRNA pool against human genes, 50 nM
Duration: LPS for 4 h, given about 3 days after siRNA transfection
Treatment: bacterial LPS (TLR4 ligand), 10 ng/ml
Measured: 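Ratio of firefly to renilla light, scaled to the plate median and expressed as a robust z-score per replicate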
Direction: TNF reporter robust z-score: higher = stronger TNF reporter response to LPS
Active means: 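Each well counts as active if its z-score is over 2.8 or under -1.5; controls are left without a call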

Gene | TNF reporter robust z-score | outcome
WDPCP (GeneID 51057) | -0.02 | inactive
WDPCP (GeneID 51057) | 2.77 | inactive
WDPCP (GeneID 51057) | 0.5 | inactive
WDPCP (GeneID 51057) | -0.61 | inactive
RBMX (GeneID 27316) | 3.23 | active
RBMX (GeneID 27316) | 5.02 | active
RBMX (GeneID 27316) | 4.99 | active
RBMX (GeneID 27316) | 3.41 | active
DGKG (GeneID 1608) | -0.59 | inactive
DGKG (GeneID 1608) | -0.16 | inactive
DGKG (GeneID 1608) | -0.2 | inactive
DGKG (GeneID 1608) | -0.29 | inactive
KRTAP5-8 (GeneID 57830) | 2.2 | inactive
KRTAP5-8 (GeneID 57830) | 3.12 | active
KRTAP5-8 (GeneID 57830) | 1.82 | inactive
KRTAP5-8 (GeneID 57830) | 1.23 | inactive
NMUR1 (GeneID 10316) | -0.72 | inactive
NMUR1 (GeneID 10316) | -0.76 | inactive
NMUR1 (GeneID 10316) | -0.5 | inactive
NMUR1 (GeneID 10316) | -0.22 | inactive
NAA38 (GeneID 84316) | 0.2 | inactive
NAA38 (GeneID 84316) | 0.33 | inactive
NAA38 (GeneID 84316) | 0.79 | inactive
NAA38 (GeneID 84316) | 0.25 | inactive
SERPINB2 (GeneID 5055) | -0.19 | inactive
SERPINB2 (GeneID 5055) | 0.54 | inactive
SERPINB2 (GeneID 5055) | 0.56 | inactive
SERPINB2 (GeneID 5055) | 0.29 | inactive
EHD2 (GeneID 30846) | 1.59 | inactive
EHD2 (GeneID 30846) | 0.64 | inactive
EHD2 (GeneID 30846) | 0.4 | inactive
EHD2 (GeneID 30846) | -0.21 | inactive

Hits, among the entries above:
Gene | TNF reporter robust z-score | outcome
RBMX (GeneID 27316) | 3.23 | active
RBMX (GeneID 27316) | 5.02 | active
RBMX (GeneID 27316) | 4.99 | active
RBMX (GeneID 27316) | 3.41 | active
KRTAP5-8 (GeneID 57830) | 3.12 | active

Continued.
Gene | TNF reporter robust z-score | outcome
TSSC4 (GeneID 10078) | 0.13 | inactive
TSSC4 (GeneID 10078) | 0.71 | inactive
TSSC4 (GeneID 10078) | 0.45 | inactive
TSSC4 (GeneID 10078) | -0.06 | inactive
EFNB2 (GeneID 1948) | 0.11 | inactive
EFNB2 (GeneID 1948) | -0.01 | inactive
EFNB2 (GeneID 1948) | -0.31 | inactive
EFNB2 (GeneID 1948) | 0.88 | inactive
AKR7L (GeneID 246181) | -0.09 | inactive
AKR7L (GeneID 246181) | -0.95 | inactive
AKR7L (GeneID 246181) | -0.13 | inactive
AKR7L (GeneID 246181) | -0.39 | inactive
ZNF510 (GeneID 22869) | – | inactive
ZNF510 (GeneID 22869) | -0.66 | inactive
ZNF510 (GeneID 22869) | -0.98 | inactive
ZNF510 (GeneID 22869) | -0.19 | inactive
ZNF510 (GeneID 22869) | -0.41 | inactive
ANKRD39 (GeneID 51239) | -0.25 | inactive
ANKRD39 (GeneID 51239) | -0.95 | inactive
ANKRD39 (GeneID 51239) | -0.69 | inactive
ANKRD39 (GeneID 51239) | 0.04 | inactive
PBOV1 (GeneID 59351) | -0.46 | inactive
PBOV1 (GeneID 59351) | 0.54 | inactive
PBOV1 (GeneID 59351) | 1.8 | inactive
PBOV1 (GeneID 59351) | -0.4 | inactive
RPL13A (GeneID 23521) | 0.84 | inactive
RPL13A (GeneID 23521) | 0.72 | inactive
RPL13A (GeneID 23521) | 1.32 | inactive
RPL13A (GeneID 23521) | -1.3 | inactive
SELENOM (GeneID 140606) | 0.07 | inactive
SELENOM (GeneID 140606) | 0.96 | inactive
SELENOM (GeneID 140606) | -0.52 | inactive
SELENOM (GeneID 140606) | 0.51 | inactive
IKBKB (GeneID 3551) | -0.79 | inactive
IKBKB (GeneID 3551) | -1.31 | inactive
IKBKB (GeneID 3551) | -0.43 | inactive
IKBKB (GeneID 3551) | -1.32 | inactive
TREML2 (GeneID 79865) | -0.19 | inactive
TREML2 (GeneID 79865) | 0.75 | inactive
TREML2 (GeneID 79865) | 0.15 | inactive
TREML2 (GeneID 79865) | 0.35 | inactive
NCBP2 (GeneID 22916) | -1.34 | inactive
NCBP2 (GeneID 22916) | -0.52 | inactive
NCBP2 (GeneID 22916) | -0.97 | inactive
NCBP2 (GeneID 22916) | 0.35 | inactive
